PubChem BioAssay AID1159578 – Peter MacCallum Cancer Centre – 2015
The deposit covers about 18,000 reagents; this is a random part of them. About 1,030 of them (5.7%) were called active. 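Inactive calls also include pools with fewer than 3300 nuclei, whose migration was not assessed.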 Raw values vary from plate to plate and are shown uncorrected. Not all columns of the deposit are shown. Reagent sequences are not shown.

Test: 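Knock-downs that alter how fast lymphatic endothelial cells migrate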 (primary screen)
System: human lymphatic endothelial cells
Knock-down reagent: siRNA pool against human genes, 40 nM
Timing: 48 h after transfection
Measured: 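Cells stained with dye and imaged after a scratch; covered wound area and nuclei counted, duplicates averaged, migration set against mock wells and turned into a robust z-score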
Scale: migration robust z-score: higher = faster migration into the scratch; nuclei per well: higher = more cells in the well
Active means: 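Migration changed when robust z exceeds 2 or falls below -2 and mean nuclei number is at least 3300; otherwise not called changed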
Calls: active = migration changed; inactive = no migration change, or too few cells

{"gene": "PEX2", "PubChem SID": "SID255351985", "migration robust z-score": 0.05, "migration class with cell-count check": "migration z between -2 and 2; enough cells", "nuclei per well, duplicate mean": 5603, "Call": "inactive"}
{"gene": "CT47A8", "PubChem SID": "SID255366173", "migration robust z-score": -0.35, "migration class with cell-count check": "migration z between -2 and 2; enough cells", "nuclei per well, duplicate mean": 5760, "Call": "inactive"}
{"gene": "PAIP1", "PubChem SID": "SID255355217", "migration robust z-score": -1.19, "migration class with cell-count check": "migration z between -2 and 2; enough cells", "nuclei per well, duplicate mean": 4306, "Call": "inactive"}
{"gene": "YPEL3", "PubChem SID": "SID255361074", "migration robust z-score": 1.03, "migration class with cell-count check": "migration z between -2 and 2; enough cells", "nuclei per well, duplicate mean": 6836, "Call": "inactive"}
{"gene": "ISG20", "PubChem SID": "SID255350532", "migration robust z-score": -0.08, "migration class with cell-count check": "migration z between -2 and 2; enough cells", "nuclei per well, duplicate mean": 6032, "Call": "inactive"}
{"gene": "SLMAP", "PubChem SID": "SID255353326", "migration robust z-score": -1.27, "migration class with cell-count check": "migration z between -2 and 2; enough cells", "nuclei per well, duplicate mean": 5814, "Call": "inactive"}
{"gene": "MGAT4C", "PubChem SID": "SID255356497", "migration robust z-score": 1.27, "migration class with cell-count check": "migration z between -2 and 2; enough cells", "nuclei per well, duplicate mean": 4577, "Call": "inactive"}
{"gene": "DGKD", "PubChem SID": "SID255353619", "migration robust z-score": -0.16, "migration class with cell-count check": "migration z between -2 and 2; enough cells", "nuclei per well, duplicate mean": 5396, "Call": "inactive"}
{"gene": "SSH1", "PubChem SID": "SID255358006", "migration robust z-score": -0.16, "migration class with cell-count check": "migration z between -2 and 2; enough cells", "nuclei per well, duplicate mean": 5406, "Call": "inactive"}
{"gene": "MMP13", "PubChem SID": "SID255351000", "migration robust z-score": 0.31, "migration class with cell-count check": "migration z between -2 and 2; enough cells", "nuclei per well, duplicate mean": 4738, "Call": "inactive"}
{"gene": "DNTTIP2", "PubChem SID": "SID255357299", "migration robust z-score": -0.16, "migration class with cell-count check": "migration z between -2 and 2; enough cells", "nuclei per well, duplicate mean": 3926, "Call": "inactive"}
{"gene": "SERPINB2", "PubChem SID": "SID255351408", "migration robust z-score": -1.04, "migration class with cell-count check": "migration z between -2 and 2; enough cells", "nuclei per well, duplicate mean": 5400, "Call": "inactive"}
{"gene": "NOS2", "PubChem SID": "SID255351266", "migration robust z-score": -1.35, "migration class with cell-count check": "migration z between -2 and 2; enough cells", "nuclei per well, duplicate mean": 5294, "Call": "inactive"}
{"gene": "PGM1", "PubChem SID": "SID255351543", "migration robust z-score": 0.02, "migration class with cell-count check": "migration z between -2 and 2; enough cells", "nuclei per well, duplicate mean": 6252, "Call": "inactive"}
{"gene": "SPACA5", "PubChem SID": "SID255365587", "migration robust z-score": -1.39, "migration class with cell-count check": "migration z between -2 and 2; enough cells", "nuclei per well, duplicate mean": 4356, "Call": "inactive"}
{"gene": "INHBC", "PubChem SID": "SID255350502", "migration robust z-score": -0.19, "migration class with cell-count check": "migration z between -2 and 2; enough cells", "nuclei per well, duplicate mean": 6543, "Call": "inactive"}
{"gene": "COX7A2", "PubChem SID": "SID255349046", "migration robust z-score": -0.42, "migration class with cell-count check": "migration z between -2 and 2; enough cells", "nuclei per well, duplicate mean": 4950, "Call": "inactive"}
{"gene": "GPR149", "PubChem SID": "SID255365180", "migration robust z-score": -0.42, "migration class with cell-count check": "migration z between -2 and 2; enough cells", "nuclei per well, duplicate mean": 6906, "Call": "inactive"}
{"gene": "PRICKLE2", "PubChem SID": "SID255363837", "migration robust z-score": 1.71, "migration class with cell-count check": "migration z between -2 and 2; enough cells", "nuclei per well, duplicate mean": 4668, "Call": "inactive"}
{"gene": "ADAMTS7", "PubChem SID": "SID255355655", "migration robust z-score": 0.36, "migration class with cell-count check": "migration z between -2 and 2; enough cells", "nuclei per well, duplicate mean": 5718, "Call": "inactive"}
{"gene": "SYNPO2", "PubChem SID": "SID255363928", "migration robust z-score": 0.34, "migration class with cell-count check": "migration z between -2 and 2; enough cells", "nuclei per well, duplicate mean": 5722, "Call": "inactive"}
{"gene": "SYPL2", "PubChem SID": "SID255364800", "migration robust z-score": -1.69, "migration class with cell-count check": "migration z between -2 and 2; enough cells", "nuclei per well, duplicate mean": 5676, "Call": "inactive"}
{"gene": "H2AZ2", "PubChem SID": "SID255362129", "migration robust z-score": -0.06, "migration class with cell-count check": "migration z between -2 and 2; enough cells", "nuclei per well, duplicate mean": 5839, "Call": "inactive"}
{"gene": "CSNK1A1L", "PubChem SID": "SID255362538", "migration robust z-score": -0.88, "migration class with cell-count check": "migration z between -2 and 2; enough cells", "nuclei per well, duplicate mean": 4578, "Call": "inactive"}
{"gene": "SPATA13", "PubChem SID": "SID255364278", "migration robust z-score": -0.42, "migration class with cell-count check": "migration z between -2 and 2; enough cells", "nuclei per well, duplicate mean": 5471, "Call": "inactive"}
{"gene": "DIRAS1", "PubChem SID": "SID255363373", "migration robust z-score": 0.05, "migration class with cell-count check": "migration z between -2 and 2; enough cells", "nuclei per well, duplicate mean": 8044, "Call": "inactive"}
{"gene": "CKLF", "PubChem SID": "SID255357549", "migration robust z-score": 0.48, "migration class with cell-count check": "migration z between -2 and 2; enough cells", "nuclei per well, duplicate mean": 5798, "Call": "inactive"}

3 neighbouring records already listed, quoted:
{"gene": "SPATA13", "PubChem SID": "SID255364278", "migration robust z-score": -0.42, "migration class with cell-count check": "migration z between -2 and 2; enough cells", "nuclei per well, duplicate mean": 5471, "Call": "inactive"}
{"gene": "DIRAS1", "PubChem SID": "SID255363373", "migration robust z-score": 0.05, "migration class with cell-count check": "migration z between -2 and 2; enough cells", "nuclei per well, duplicate mean": 8044, "Call": "inactive"}
{"gene": "CKLF", "PubChem SID": "SID255357549", "migration robust z-score": 0.48, "migration class with cell-count check": "migration z between -2 and 2; enough cells", "nuclei per well, duplicate mean": 5798, "Call": "inactive"}
